The record followed here is publication PMC7268643.

Sequences of proteins named here, by UniProt entry; tags and fusion partners are left off.
UniProt O88737: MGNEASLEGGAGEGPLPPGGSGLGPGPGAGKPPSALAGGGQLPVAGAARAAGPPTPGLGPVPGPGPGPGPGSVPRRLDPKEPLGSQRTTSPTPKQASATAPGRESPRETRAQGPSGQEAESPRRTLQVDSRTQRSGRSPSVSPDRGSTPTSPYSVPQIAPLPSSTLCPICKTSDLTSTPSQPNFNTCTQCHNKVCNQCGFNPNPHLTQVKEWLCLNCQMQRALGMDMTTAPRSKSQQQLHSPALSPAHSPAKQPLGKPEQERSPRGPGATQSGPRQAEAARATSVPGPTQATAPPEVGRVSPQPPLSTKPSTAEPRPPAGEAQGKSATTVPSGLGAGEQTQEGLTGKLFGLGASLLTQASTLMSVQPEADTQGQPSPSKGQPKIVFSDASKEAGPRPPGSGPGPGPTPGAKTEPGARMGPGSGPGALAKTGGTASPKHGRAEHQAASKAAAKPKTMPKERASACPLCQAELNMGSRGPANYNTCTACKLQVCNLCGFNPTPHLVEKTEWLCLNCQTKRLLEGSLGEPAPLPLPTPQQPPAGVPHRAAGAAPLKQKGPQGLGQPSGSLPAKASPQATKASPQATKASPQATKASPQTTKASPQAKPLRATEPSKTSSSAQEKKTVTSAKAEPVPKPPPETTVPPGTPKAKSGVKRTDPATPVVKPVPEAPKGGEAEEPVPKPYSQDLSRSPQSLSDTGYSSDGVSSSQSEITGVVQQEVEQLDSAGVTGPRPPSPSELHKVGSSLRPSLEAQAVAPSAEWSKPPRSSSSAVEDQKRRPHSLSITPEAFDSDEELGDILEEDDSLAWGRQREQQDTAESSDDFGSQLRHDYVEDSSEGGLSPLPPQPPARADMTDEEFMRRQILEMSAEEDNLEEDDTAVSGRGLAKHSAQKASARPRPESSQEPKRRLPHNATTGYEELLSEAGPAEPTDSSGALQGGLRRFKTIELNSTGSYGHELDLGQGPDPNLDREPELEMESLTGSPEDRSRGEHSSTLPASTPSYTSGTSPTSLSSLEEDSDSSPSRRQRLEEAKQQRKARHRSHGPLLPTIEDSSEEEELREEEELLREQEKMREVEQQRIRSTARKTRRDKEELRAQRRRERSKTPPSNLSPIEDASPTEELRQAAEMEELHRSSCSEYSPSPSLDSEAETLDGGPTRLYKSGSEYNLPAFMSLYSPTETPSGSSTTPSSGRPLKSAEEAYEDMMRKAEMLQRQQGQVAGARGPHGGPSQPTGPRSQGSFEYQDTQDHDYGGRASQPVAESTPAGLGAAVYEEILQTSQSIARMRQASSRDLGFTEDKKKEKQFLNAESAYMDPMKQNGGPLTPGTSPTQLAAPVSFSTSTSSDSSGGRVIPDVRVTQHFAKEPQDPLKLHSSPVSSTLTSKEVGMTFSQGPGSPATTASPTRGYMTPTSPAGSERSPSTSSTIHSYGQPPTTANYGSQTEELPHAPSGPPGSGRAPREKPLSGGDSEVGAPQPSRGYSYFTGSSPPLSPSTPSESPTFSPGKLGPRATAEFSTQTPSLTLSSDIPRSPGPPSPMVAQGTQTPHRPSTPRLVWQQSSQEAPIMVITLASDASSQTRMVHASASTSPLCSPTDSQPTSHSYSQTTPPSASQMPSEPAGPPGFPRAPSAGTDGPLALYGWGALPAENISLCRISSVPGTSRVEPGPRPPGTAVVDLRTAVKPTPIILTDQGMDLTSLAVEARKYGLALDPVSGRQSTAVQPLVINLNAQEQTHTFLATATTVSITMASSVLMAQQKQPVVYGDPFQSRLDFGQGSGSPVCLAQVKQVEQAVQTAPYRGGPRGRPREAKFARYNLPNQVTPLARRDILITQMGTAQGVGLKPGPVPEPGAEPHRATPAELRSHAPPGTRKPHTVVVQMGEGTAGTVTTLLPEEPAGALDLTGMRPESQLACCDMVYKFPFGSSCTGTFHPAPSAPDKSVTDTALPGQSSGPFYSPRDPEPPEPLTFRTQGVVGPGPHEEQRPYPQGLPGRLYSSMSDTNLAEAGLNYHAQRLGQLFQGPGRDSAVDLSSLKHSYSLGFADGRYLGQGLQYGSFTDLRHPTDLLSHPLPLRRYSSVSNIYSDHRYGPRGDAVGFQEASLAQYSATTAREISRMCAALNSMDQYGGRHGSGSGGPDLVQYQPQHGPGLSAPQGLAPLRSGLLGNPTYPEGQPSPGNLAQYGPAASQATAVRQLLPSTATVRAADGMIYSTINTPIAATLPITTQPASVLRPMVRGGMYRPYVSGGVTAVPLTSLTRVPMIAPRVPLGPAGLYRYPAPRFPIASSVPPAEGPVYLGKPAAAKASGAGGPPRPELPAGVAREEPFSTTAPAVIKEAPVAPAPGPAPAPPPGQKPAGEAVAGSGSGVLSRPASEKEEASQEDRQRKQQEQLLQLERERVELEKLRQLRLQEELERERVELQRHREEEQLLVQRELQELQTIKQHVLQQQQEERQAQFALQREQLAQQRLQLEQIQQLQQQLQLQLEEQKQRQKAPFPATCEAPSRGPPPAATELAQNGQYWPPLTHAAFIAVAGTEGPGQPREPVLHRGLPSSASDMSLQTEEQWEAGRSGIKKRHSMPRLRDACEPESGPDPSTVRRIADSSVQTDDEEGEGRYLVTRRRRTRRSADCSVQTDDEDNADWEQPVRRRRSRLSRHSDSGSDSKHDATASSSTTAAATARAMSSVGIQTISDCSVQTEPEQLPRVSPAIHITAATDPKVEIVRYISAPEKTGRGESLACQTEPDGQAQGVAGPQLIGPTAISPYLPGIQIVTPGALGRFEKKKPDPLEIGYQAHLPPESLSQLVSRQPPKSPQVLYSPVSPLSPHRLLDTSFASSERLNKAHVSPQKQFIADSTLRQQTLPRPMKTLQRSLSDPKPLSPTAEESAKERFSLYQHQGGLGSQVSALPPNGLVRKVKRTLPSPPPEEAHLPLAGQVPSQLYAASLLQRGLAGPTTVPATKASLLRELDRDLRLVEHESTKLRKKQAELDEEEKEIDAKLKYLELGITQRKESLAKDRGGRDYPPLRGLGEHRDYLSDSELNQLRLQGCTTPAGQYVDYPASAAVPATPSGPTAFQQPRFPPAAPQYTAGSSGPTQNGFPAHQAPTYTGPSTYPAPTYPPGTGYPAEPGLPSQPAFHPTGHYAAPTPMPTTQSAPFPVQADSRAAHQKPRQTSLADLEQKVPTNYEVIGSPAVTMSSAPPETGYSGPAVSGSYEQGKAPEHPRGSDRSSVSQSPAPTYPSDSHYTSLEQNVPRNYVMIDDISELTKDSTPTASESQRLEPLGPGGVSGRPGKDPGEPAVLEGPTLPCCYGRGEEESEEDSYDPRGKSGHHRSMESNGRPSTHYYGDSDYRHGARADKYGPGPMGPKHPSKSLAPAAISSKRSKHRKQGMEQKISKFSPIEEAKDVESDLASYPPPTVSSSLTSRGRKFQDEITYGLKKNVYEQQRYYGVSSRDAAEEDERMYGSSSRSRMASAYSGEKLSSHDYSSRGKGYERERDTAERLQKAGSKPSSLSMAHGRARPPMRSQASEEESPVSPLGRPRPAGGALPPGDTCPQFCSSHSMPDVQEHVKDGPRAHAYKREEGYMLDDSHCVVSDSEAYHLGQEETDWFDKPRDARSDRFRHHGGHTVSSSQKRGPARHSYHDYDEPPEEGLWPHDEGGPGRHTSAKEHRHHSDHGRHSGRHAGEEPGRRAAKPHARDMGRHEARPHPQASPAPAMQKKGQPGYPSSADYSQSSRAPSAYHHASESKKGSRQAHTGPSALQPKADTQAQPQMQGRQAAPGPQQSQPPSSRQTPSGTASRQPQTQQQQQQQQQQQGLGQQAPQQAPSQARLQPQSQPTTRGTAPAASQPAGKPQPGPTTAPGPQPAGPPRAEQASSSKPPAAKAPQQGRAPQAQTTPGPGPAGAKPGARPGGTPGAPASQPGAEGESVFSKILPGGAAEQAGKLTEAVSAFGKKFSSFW

This assay deals with wild type huntingtin (endogenous, mouse brain) (mouse (endogenous in mouse brain)) (UniProt P42859). In words: co-IP; telencephalic homogenates (1000 x g supernatant) of 40-week-old R6/1 and WT mice, 1 ug/ul in PBS pH 7.4 with 1 mM EDTA, 1% Nonidet P40; 3 ug mouse monoclonal anti-huntingtin (MAB5492), 4 °C overnight, protein-G agarose; blot for Bassoon.

Results are given in words; binding and its absence hold for the method and conditions named. In cells and extracts the contact can be indirect.

On to “Bassoon (endogenous, mouse brain) (from UniProt O88737 1-3942)”, for which the binding result was “no binding”.
